Data from patent US20250265710A1, “NON-INVASIVE LASER SPECKLE IMAGING OF EXTRA-EMBRYONIC BLOOD VESSELS” (California Institute of Technology, priority 2024, published 2025).
At least one structure is not confirmed: it was looked up by name or label, or the drawing left a doubt. Some of these results come from one statement about several compounds together.

Test system: chick embryonic heart
Description: These drugs were injected through the shell ventral to chick embryos at a developmental HH stage between HH16-19. The needle was guided to the embryos by the LLSCI system in live view mode.
In one example, before imaging, the eggs are injected with a drug by implementing a live view mode to ascertain the position of the embryo's heart and inserted a needle into the eggshell and the drug was injected into the area ventral to the embryo in a volume of 25-150 μL. This may result in a hole in the eggshell having a diameter between 0.6 and 0.8 mm. The hole can be covered by transparent tape to ensure the continued development of the embryo. […]
To quantify and characterize the effects of injecting a drug solution onto the CAM, an LSCI system was used to extract four features from the blood vessels images and blood flow graphs. […]
In various examples, the length of the blood vessels may be calculated as the total length of the vessel skeleton in the blood vessel image. In various examples, the number of branches may be determined by counting the branch points connecting the blood vessels and isolated vessel segments in the blood vessel images. […] In various examples, the heart rate may be measured from the Fourier transform of the blood flow signal. […]

Structure (SMILES): CCOC(=O)C1=C(COCCN)NC(C)=C(C(=O)OC)C1c1ccccc1Cl (centres unmarked) [Amlodipine]
- effective concentration/dose relative to the other drug (chick embryo, Nifedipine versus Amlodipine): ten times higher
- time to significant reduction in heart rate and blood flow in vessels after injection (chick embryos HH16-19, injected through the shell ventral to embryo): 5 to 15 min
